Values quoted from earlier work as cited in US11819485B2, “Levodopa fractionated dose composition and use” (AVION PHARMACEUTICALS, LLC, priority 2018, dated 2023).

## N[C@@H](Cc1ccc(O)c(O)c1)C(=O)O [LD, Levodopa]
Blood stream
  half-life of LD in the blood stream: about 1.5 hours
plasma
  plasma half-life of LD: approximately 90 min
